This data set has as its system Human Umbilical Vein Endothelial (HUVEC) cell line.

From PMC4277633 (Iranian Journal of Pharmaceutical Research : IJPR, 2015) come the findings set out here.

For the compound `Nc1ccccc1` [Compound 1a], the “SI (IC 50 /MIC)” value turned out to be 4.15 µg/mL.

As for `N#Cc1ccccc1N` [Compound 1b], the “SI (IC 50 /MIC)” value is listed as 9.683 µg/mL.

`c1ccc2[nH]ccc2c1` [Compound 1c, indole]: the “SI (IC 50 /MIC)” value worked out at 12.2272 µg/mL.

With `Nc1ccc2c(c1)Cc1ccccc1-2` [Compound 1e, 2-fluorenamine], the “SI (IC 50 /MIC)” value worked out at 61.99 µg/mL.

On to `Nc1cccc2c1C(=O)c1ccccc1C2=O` [Compound 1f, 1-aminoanthraquinone], for which the “SI (IC 50 /MIC)” value worked out at 1.814 µg/mL.

For the compound `Nc1ccc(Nc2ccccc2)c2c1C(=O)c1ccccc1C2=O` [Compound 1g, 1-amino-4-anilino-9,10-anthraquinone], the “SI (IC 50 /MIC)” value is on record as above 88.33 µg/mL.

Consider `O=C1c2ccccc2C(=O)N1CCO` [Compound 1h, N-(2-Hydroxyethyl)-phthalimide], for which the “SI (IC 50 /MIC)” value was found to be 1.683 µg/mL.

With `NCCCn1ccnc1` [Compound 1i], the “SI (IC 50 /MIC)” value was 3.524 µg/mL.

On to `O=C(O)/C=C/c1cnc[nH]1` [Compound 1j], for which the “SI (IC 50 /MIC)” value was 2.374 µg/mL.

`Cc1cc(C(=O)O)no1` [Compound 2a, 5-methylisoxazole-3-carboxylic acid]: the “SI (IC 50 /MIC)” value is reported as 8.743 µg/mL.

For `O=C(O)c1cc2ccccc2oc1=O` [Compound 2b, coumarin-3-carboxylic acid], the “SI (IC 50 /MIC)” value amounted to 29.58 µg/mL.
